Measurements reported in PubChem BioAssay AID504764 (Drosophila RNAi Screening Center, 2011).

- Aim: 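Genome-wide screen for regulators of Notch-driven gene expression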 (primary screen)
- Cells: Drosophila Kc167 cells
- Knock-down reagent: long dsRNA against Drosophila genes
- Timing: about 5 days (4 days dsRNA, then 24 h after transfection)
- Challenge: transfection of constitutively active membrane-tethered Notch lacking the extracellular domain, read 24 h later
- Measurement: 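Firefly luciferase from an E(spl)m3 reporter with active Notch, plus control-promoter and uninduced reporter wells for normalisation; unnormalised counts, duplicate wells a and b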
- Direction: induced reporter light, run 1, well a and induced reporter light, run 1, well b: higher = more light from the Notch target reporter with active Notch; control promoter light, run 1, well a and control promoter light, run 1, well b: higher = more light from the viral control promoter (cell number, transfection, viability); uninduced reporter light, run 1, well a: higher = more light from the Notch target reporter without active Notch
- Call rule: 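Hit if the duplicate-averaged log2 ratio of induced to control-promoter light gives a plate-wise z beyond ±2, or induced to uninduced beyond ±1.8; weak-control or discordant-duplicate wells dropped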
- Calls: active = modifier hit (raised or lowered Notch signal); inactive = not a hit
In all, the deposit lists about 22,000 reagents; this is a random part of those that have a named target and a result. Over the whole deposit, 403 (1.9%) got an active call. 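Unnormalised raw counts per well; ratio z-scores behind the hit calls and whether each hit raises or lowers signal are not deposited.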 Unmarked entries are inactive. The record does not give: the amount of reagent.

Target gene | amplicon | induced reporter light, run 1, well a | induced reporter light, run 1, well b | control promoter light, run 1, well a | control promoter light, run 1, well b | uninduced reporter light, run 1, well a
mRpL50 | DRSC11015 | 1.67e5 | 1.15e5 | 88935 | 47585 | 10500
CG42514 | DRSC10428 | 1.13e5 | 1.34e5 | 85885 | 1.30e5 | 11560
CG11585 | DRSC19410 | 72025 | 76995 | 93375 | 66125 | 11365
Syt1 | DRSC00156 | 1.15e5 | 79775 | 1.29e5 | 1.37e5 | 6805
Syt1 | DRSC00157 | 1.13e5 | 1.17e5 | 1.22e5 | 1.01e5 | 8015
Syt1 | DRSC00158 | 1.20e5 | 79885 | 1.53e5 | 1.53e5 | 8325
Syt1 | DRSC00840 | 1.97e5 | 1.68e5 | 1.87e5 | 1.74e5 | 12065
fz2 | DRSC09595 | 2.50e5 | 2.69e5 | 2.95e5 | 3.32e5 | 18445
fz2 | DRSC10087 | 34150 | 34500 | 18700 | 18175 | 5350
fz2 | DRSC11349 | 89175 | 85240 | 89165 | 92085 | 5565
CecC | DRSC16606 | 1.81e5 | 1.01e5 | 1.98e5 | 1.81e5 | 12120
Saysd1 | DRSC14664 | 1.53e5 | 1.32e5 | 1.92e5 | 2.14e5 | 12382
CG4372 | DRSC04466 | 30785 | 33810 | 29915 | 20340 | 2160
Glg1 | DRSC11815 | 1.27e5 | 1.16e5 | 79790 | 1.03e5 | 9270
Glg1 | DRSC11816 | 28195 | 39850 | 44805 | 41500 | 2400
Glg1 | DRSC11817 | 1.18e5 | 1.15e5 | 98670 | 91620 | 7395
COX7A | DRSC16514 | 86965 | 1.03e5 | 95690 | 72075 | 4530
CG5282 | DRSC11775 | 94980 | 1.05e5 | 73350 | 90890 | 8350
Fam92 | DRSC02952 | 1.85e5 | 1.83e5 | 1.61e5 | 1.52e5 | 17505
CG1142 | DRSC12531 | 97845 | 1.32e5 | 1.41e5 | 94065 | 7540
Ebp | DRSC04048 | 2.51e5 | 1.99e5 | 1.90e5 | 1.63e5 | 16750
ppk31 | DRSC13811 | 2.63e5 | 1.78e5 | 2.23e5 | 1.88e5 | 18580
ana1 | DRSC16079 | 16020 | 16490 | 23770 | 20162 | 1325
exex | DRSC10972 | 2.54e5 | 2.68e5 | 2.77e5 | 2.60e5 | 13420
Jon65Ai | DRSC09731 | 2.47e5 | 1.95e5 | 2.74e5 | 2.15e5 | 10170
CG34330 | DRSC20043 | 99975 | 87335 | 83795 | 1.31e5 | 11155
Spn77Ba | DRSC10693 | 1.27e5 | 1.40e5 | 63825 | 74015 | 10160
Ir21a | DRSC00528 | 99390 | 1.08e5 | 94725 | 45480 | 8395
CG12986 | DRSC19506 | 61980 | 51660 | 64670 | 52070 | 8515
CG13282 | DRSC02254 | 1.14e5 | 1.24e5 | 1.14e5 | 1.42e5 | 8645
ppk26 | DRSC10991 | 1.94e5 | 1.80e5 | 2.48e5 | 1.94e5 | 10515
mbl | DRSC05657 | 1.16e5 | 1.17e5 | 1.50e5 | 1.42e5 | 9140
mbl | DRSC06449 | 30825 | 26365 | 44520 | 47930 | 4578
mbl | DRSC07651 | 95395 | 62170 | 76360 | 98855 | 10370

Entries listed so far whose target name starts with F or f (4):
Target gene | amplicon | induced reporter light, run 1, well a | induced reporter light, run 1, well b | control promoter light, run 1, well a | control promoter light, run 1, well b | uninduced reporter light, run 1, well a
fz2 | DRSC09595 | 2.50e5 | 2.69e5 | 2.95e5 | 3.32e5 | 18445
fz2 | DRSC10087 | 34150 | 34500 | 18700 | 18175 | 5350
fz2 | DRSC11349 | 89175 | 85240 | 89165 | 92085 | 5565
Fam92 | DRSC02952 | 1.85e5 | 1.83e5 | 1.61e5 | 1.52e5 | 17505
